Data as given in article doi:10.1101/2023.02.18.529070 (bioRxiv, 2023).
Where two headings read alike, the source gives them in different places. These are yes or no findings as the source states them, for the method shown. Binding seen in cells or lysates may run through a third protein. Here binding means that the protein was enriched with, or labelled near, the bait; the list need not be complete. For some of these results: No binding means not detected with the bait. Values belong to the molecule of their own block, whether it stands above or below them.

Amino acid sequences for entries named in this document (tags omitted). Residues count along the entry.
UniProt P21860, residues 20-643: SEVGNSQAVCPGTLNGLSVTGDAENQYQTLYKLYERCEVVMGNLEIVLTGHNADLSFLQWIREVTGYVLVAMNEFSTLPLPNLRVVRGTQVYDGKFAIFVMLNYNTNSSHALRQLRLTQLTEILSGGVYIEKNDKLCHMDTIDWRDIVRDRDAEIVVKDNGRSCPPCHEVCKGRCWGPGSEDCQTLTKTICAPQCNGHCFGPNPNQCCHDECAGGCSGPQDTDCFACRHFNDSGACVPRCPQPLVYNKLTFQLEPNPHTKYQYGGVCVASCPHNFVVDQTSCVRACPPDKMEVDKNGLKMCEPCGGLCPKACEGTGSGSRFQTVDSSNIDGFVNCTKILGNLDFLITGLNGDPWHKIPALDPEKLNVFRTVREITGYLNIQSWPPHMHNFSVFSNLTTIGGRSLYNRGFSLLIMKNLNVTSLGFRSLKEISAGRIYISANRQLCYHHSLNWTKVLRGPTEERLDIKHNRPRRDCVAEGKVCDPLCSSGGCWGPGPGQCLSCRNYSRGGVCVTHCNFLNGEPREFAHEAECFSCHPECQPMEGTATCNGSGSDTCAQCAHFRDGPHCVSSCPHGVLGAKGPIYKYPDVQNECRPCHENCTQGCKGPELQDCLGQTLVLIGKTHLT
UniProt Q9NS15, residues 44-1303: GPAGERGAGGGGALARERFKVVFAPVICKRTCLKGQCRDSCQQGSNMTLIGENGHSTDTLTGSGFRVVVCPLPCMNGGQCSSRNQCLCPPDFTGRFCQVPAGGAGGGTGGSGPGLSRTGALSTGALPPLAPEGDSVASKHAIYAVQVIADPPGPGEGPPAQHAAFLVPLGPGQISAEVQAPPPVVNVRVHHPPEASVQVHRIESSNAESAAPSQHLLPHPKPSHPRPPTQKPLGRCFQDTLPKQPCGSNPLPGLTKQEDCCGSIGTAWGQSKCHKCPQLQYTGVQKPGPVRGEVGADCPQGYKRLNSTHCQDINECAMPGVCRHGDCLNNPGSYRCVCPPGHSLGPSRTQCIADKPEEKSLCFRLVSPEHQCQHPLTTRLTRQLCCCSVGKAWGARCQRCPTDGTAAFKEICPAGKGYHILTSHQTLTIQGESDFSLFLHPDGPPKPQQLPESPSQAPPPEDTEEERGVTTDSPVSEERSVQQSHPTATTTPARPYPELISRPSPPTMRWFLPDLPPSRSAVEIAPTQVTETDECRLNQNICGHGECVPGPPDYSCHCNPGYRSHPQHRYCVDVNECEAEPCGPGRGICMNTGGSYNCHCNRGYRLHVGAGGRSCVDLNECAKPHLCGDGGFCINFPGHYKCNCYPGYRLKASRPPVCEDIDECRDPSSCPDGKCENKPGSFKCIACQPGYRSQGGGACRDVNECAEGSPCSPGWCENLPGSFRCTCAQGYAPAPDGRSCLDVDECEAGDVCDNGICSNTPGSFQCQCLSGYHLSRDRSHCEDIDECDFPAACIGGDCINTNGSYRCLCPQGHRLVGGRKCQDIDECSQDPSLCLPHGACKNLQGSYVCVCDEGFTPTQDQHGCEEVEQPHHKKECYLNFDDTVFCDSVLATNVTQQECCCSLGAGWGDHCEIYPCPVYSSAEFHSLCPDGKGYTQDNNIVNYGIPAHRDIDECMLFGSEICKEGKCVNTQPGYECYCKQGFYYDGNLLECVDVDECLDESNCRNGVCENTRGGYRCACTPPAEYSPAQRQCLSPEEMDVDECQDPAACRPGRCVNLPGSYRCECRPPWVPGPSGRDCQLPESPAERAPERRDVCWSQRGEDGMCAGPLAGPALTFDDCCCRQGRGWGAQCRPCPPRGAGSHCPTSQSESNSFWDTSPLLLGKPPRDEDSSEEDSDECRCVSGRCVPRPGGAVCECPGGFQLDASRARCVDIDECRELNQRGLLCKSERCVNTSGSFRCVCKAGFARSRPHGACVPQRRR

Experiments:
Test in all cases: affinity purification with mass spectrometry
[1] = biological target: recombinant human HER3 extracellular domain (human) (UniProt P21860)
[2] = biological target: recombinant human HER3 extracellular domain (human) (UniProt P21860); remark: listed apart in the source
[3] = biological target: HER2 extracellular domain (UniProt P04626)

- binding [1]: binds
Molecule: LTBP3 (in EC conditioned medium) (from UniProt Q9NS15 44-1303)

- binding [2]: binds
B1: NPR1 (in EC conditioned medium) (protein, UniProt P16066 33-473)
chain: GNLTVAVVLPLANTSYPWSWARVGPAVELALAQVKARPDLLPGWTVRTVLGSSENALGVCSDTAAPLAAVDLKWEHNPAVFLGPGCVYAAAPVGRFTAHWRVPLLTAGAPALGFGVKDEYALTTRAGPSYAKLGDFVAALHRRLGWERQALMLYAYRPGDEEHCFFLVEGLFMRVRDRLNITVDHLEFAEDDLSHYTRLLRTMPRKGRVIYICSSPDAFRTLMLLALEAGLCGEDYVFFHLDIFGQSLQGGQGPAPRRPWERGDGQDVSARQAFQAAKIITYKDPDNPEYLEFLKQLKHLAYEQFNFTMEDGLVNTIPASFHDGLLLYIQAVTETLAHGGTVTDGENITQRMWNRSFQGVTGYLKIDSSGDRETDFSLWDMDPENGAFRVVLNYNGTSQELVAVSGRKLNWPLGYPPPDIPKCGFDNEDPACNQDHLSTLE

- binding [3]: no binding
- binding [2]: binds
B2: recombinant human LRG1 (leucine-rich alpha-2-glycoprotein 1) (ligand, UniProt P02750 36-347, looked up)
chain: VTLSPKDCQVFRSDHGSSISCQPPAEIPGYLPADTVHLAVEFFNLTHLPANLLQGASKLQELHLSSNGLESLSPEFLRPVPQLRVLDLTRNALTGLPPGLFQASATLDTLVLKENQLEVLEVSWLHGLKALGHLDLSGNRLRKLPPGLLANFTLLRTLDLGENQLETLPPDLLRGPLQLERLHLEGNKLQVLGKDLLLPQPDLRYLFLNGNKLARVAAGAFQGLRQLDMLDLSNNSLASVPEGLWASLGQPNWDMRDGFDISGNPWICDQNLSDLYRWLQAQKDKMFSQNDTRCAGPEAVKGQTLLAVAKSQ
